Data as given in PubChem BioAssay AID1053208 (Peter MacCallum Cancer Centre, 2014).
Shown is an unselected part of about 17,000 reagents tested. Over the whole deposit, 788 (4.7%) are marked active. 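Calls rest on z-score classes alone; an extra cut-off of viability at most 70% of control was not applied to them.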 Reagents against one gene are numbered here.

Screen: 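Genes whose silencing cuts survival of bone tumour cells only with doxorubicin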 (primary screen)
Cells: mouse osteosarcoma cells, early-passage culture from an engineered mouse model of fibroblastic bone tumour
Knock-down reagent: siRNA pool against mouse genes, 40 nM
Time to read-out: about 120 h (48 h before drug, then 72 h with drug)
Conditions: doxorubicin 100 nM for 72 h, roughly 30-40% inhibitory dose
Read-out: 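Viability read as ATP luminescence after 72 h of 100 nM doxorubicin or none, duplicate wells averaged, scaled to non-targeting siRNA, then expressed as robust z-scores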
Direction: viability z-score with doxorubicin and doxorubicin viability vs non-targeting: higher = more viable cells under doxorubicin; viability z-score without drug: higher = more viable cells with knock-down alone; z-score of drug to no-drug ratio: higher = less drug sensitisation by knock-down
Call rule: 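Called active if knock-down leaves viability unchanged without drug (z within -2 to 2) but lowers it with doxorubicin (z at or under -2)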

combined z-score class,viability z-score with doxorubicin,viability z-score without drug,z-score of drug to no-drug ratio,doxorubicin viability vs non-targeting,Outcome,gene symbol,pool no.
no change with or without drug,1.35,-1.18,2.47,1.06,inactive,Grik3,1
no change with or without drug,-0.22,0.51,-0.45,0.92,inactive,Or52ab4,1
no change with or without drug,-0.11,0.84,-0.56,0.93,inactive,Slc12a5,1
high cell count without drug only,1.57,2.7,-0.11,1.08,inactive,Or4c116,1
no change with or without drug,1.24,-0.17,1.57,1.05,inactive,4931429L15Rik,1
no change with or without drug,1.35,0.84,0.9,1.06,inactive,Rab11fip1,1
no change with or without drug,-1.57,-0.51,-1.24,0.8,inactive,Gsta3,1
no change with or without drug,-1.46,-0.17,-1.35,0.81,inactive,Prkra,1
no change with or without drug,0.67,0.17,0.67,1,inactive,Ap1b1,1
no change with or without drug,0.45,1.35,-0.34,0.98,inactive,Fancg,1
no change with or without drug,-0.9,-1.18,0,0.86,inactive,Pycr2,1
no change with or without drug,-1.57,-1.18,-0.79,0.8,inactive,Atf2,1
no change with or without drug,0,-1.18,1.01,0.94,inactive,Sec61b,1
high cell count with and without drug,2.25,2.36,0.79,1.14,inactive,Vmn1r219,1
no change with or without drug,0.22,-0.17,0.45,0.96,inactive,Surf4,1
no change with or without drug,0.45,-1.35,1.69,0.98,inactive,4933402J07Rik,1
no change with or without drug,-0.22,0.34,-0.34,0.92,inactive,Kmt2a,1
no change with or without drug,0,0.17,0,0.94,inactive,Tex13a,1
low cell count without drug only,-1.24,-2.53,0.67,0.83,inactive,Rrp1,1
no change with or without drug,0.45,1.18,-0.22,0.98,inactive,Ark2n,1
no change with or without drug,-0.45,0.84,-0.9,0.9,inactive,Nlrp5,1
no change with or without drug,-0.45,0,-0.34,0.9,inactive,5430439G14RIK,1
no change with or without drug,0.22,1.52,-0.67,0.96,inactive,Slc26a1,1
no change with or without drug,-1.35,-0.51,-1.01,0.82,inactive,Osbpl10,1
no change with or without drug,-1.57,-1.18,-0.79,0.8,inactive,Osbpl10,2
no change with or without drug,0,0,0.11,0.94,inactive,Mrgpra6,1
no change with or without drug,-0.45,0,-0.34,0.9,inactive,Agps,1
no change with or without drug,0.45,1.01,-0.11,0.98,inactive,Rps6kb1,1
low cell count with and without drug,-2.7,-4.05,0.11,0.7,inactive,Nupr1,1
no change with or without drug,0.45,-0.17,0.67,0.98,inactive,Caps2,1
no change with or without drug,-1.8,1.69,-2.7,0.78,inactive,Zfp672,1
no change with or without drug,-1.91,0.84,-2.36,0.77,inactive,Zfp672,2
no change with or without drug,0,1.52,-0.9,0.94,inactive,Serpind1,1
no change with or without drug,-0.22,-0.17,0,0.92,inactive,Gng2,1
no change with or without drug,-0.9,-0.51,-0.56,0.86,inactive,AU021107,1
no change with or without drug,-0.34,-0.84,0.34,0.91,inactive,Cbln2,1
low cell count with doxorubicin only,-2.7,0,-2.7,0.7,active,Dnajc17,1
no change with or without drug,-1.69,-0.51,-1.35,0.79,inactive,Arl5a,1
low cell count with and without drug,-6.74,-7.42,-3.48,0.34,inactive,Rpl7,1
no change with or without drug,-1.35,-0.51,-1.01,0.82,inactive,Or5k3,1
low cell count with doxorubicin only,-3.15,-1.85,-2.14,0.66,active,Marveld1,1
no change with or without drug,-1.12,0.17,-1.12,0.84,inactive,Aloxe3,1
no change with or without drug,1.01,1.69,0,1.03,inactive,P3h2,1
no change with or without drug,-1.24,-0.51,-0.9,0.83,inactive,Pitpnm3,1
no change with or without drug,0.45,0.17,0.45,0.98,inactive,Slc37a4,1
low cell count with doxorubicin only,-2.25,-0.34,-2.02,0.74,active,Cds2,1
no change with or without drug,-0.45,0.17,-0.45,0.9,inactive,Commd2,1
no change with or without drug,0.22,-0.17,0.45,0.96,inactive,Ankrd23,1
high cell count without drug only,1.24,2.36,-0.22,1.05,inactive,Zcchc9,1
no change with or without drug,-0.67,-0.51,-0.22,0.88,inactive,Or6c209,1
no change with or without drug,0,0.51,-0.22,0.94,inactive,Zar1,1
no change with or without drug,0.22,-0.34,0.56,0.96,inactive,Mob3a,1
no change with or without drug,1.12,-1.18,2.25,1.04,inactive,Gjb5,1
no change with or without drug,0.22,1.52,-0.67,0.96,inactive,Evi5,1
no change with or without drug,-1.8,1.01,-2.36,0.78,inactive,Dbndd2,1
no change with or without drug,0,-0.67,0.56,0.94,inactive,Tagln2,1
no change with or without drug,0.67,-0.51,1.24,1,inactive,Phc2,1
high cell count without drug only,1.46,3.04,-0.34,1.07,inactive,Phf14,1
no change with or without drug,-0.9,0.34,-1.01,0.86,inactive,Mid1,1
no change with or without drug,0.56,-0.17,0.79,0.99,inactive,Or1aa2,1
no change with or without drug,-0.11,1.18,-0.79,0.93,inactive,Trpa1,1
no change with or without drug,-0.9,-1.52,0.22,0.86,inactive,Pcdha12,1
no change with or without drug,-0.45,-1.01,0.34,0.9,inactive,Or4a2,1

10 entries already listed, sorted by “viability z-score without drug”, low to high.
combined z-score class,viability z-score with doxorubicin,viability z-score without drug,z-score of drug to no-drug ratio,doxorubicin viability vs non-targeting,Outcome,gene symbol,pool no.
low cell count without drug only,-1.24,-2.53,0.67,0.83,inactive,Rrp1,1
no change with or without drug,0.45,-1.35,1.69,0.98,inactive,4933402J07Rik,1
no change with or without drug,-1.35,-0.51,-1.01,0.82,inactive,Osbpl10,1
no change with or without drug,0.22,-0.17,0.45,0.96,inactive,Surf4,1
no change with or without drug,-0.45,0,-0.34,0.9,inactive,5430439G14RIK,1
no change with or without drug,0,0.17,0,0.94,inactive,Tex13a,1
no change with or without drug,-0.22,0.34,-0.34,0.92,inactive,Kmt2a,1
no change with or without drug,-0.45,0.84,-0.9,0.9,inactive,Nlrp5,1
no change with or without drug,0.45,1.18,-0.22,0.98,inactive,Ark2n,1
no change with or without drug,0.22,1.52,-0.67,0.96,inactive,Slc26a1,1
